PubChem BioAssay AID1259308, NCATS | 2017

- Test: 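Genes whose loss raises luciferase production in HEK293 cells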 (primary screen)
- System: human HEK293 embryonic kidney cells stably expressing firefly luciferase (HEK-CMV-Luc2-Hygro)
- Reagents: single siRNA against human genes, 0.8 pmol siRNA per well
- Time to read-out: 72 h
- Measured: 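Luciferase light (ONE-Glo) measured on one replicate plate set and viability (CellTiter-Glo) on the other, scaled to a negative control siRNA, with robust z-scores and luciferase per cell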
- Scale: total luciferase, z-score and total luciferase, % of control: higher = more reporter protein produced; luciferase per cell, z-score: higher = more reporter output per viable cell; viable cells, % of control: higher = more viable cells
- Rule for the call: 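Active when the median/MAD z-score for overall luciferase is greater than 3; a gene was taken forward for validation with new siRNAs if at least two of its three siRNAs passed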
- Calls: active = raised luciferase; inactive = no rise
In all, the deposit lists about 59,000 reagents; shown is an unselected part. Over the whole deposit, about 1,510 (2.6%) got an active call. 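Calls use total luciferase alone and ignore viability, so some active siRNAs may act by altering cell number.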 The numbers tell different reagents against one gene apart.

The first 6 records, to show the layout:
no.	Gene	reagent	total luciferase, z-score	total luciferase, % of control	luciferase per cell, z-score	viable cells, % of control	Call
1	NSA2	1	-2.17	38.7	-2	73.2	inactive
2	NSA2	2	-0.0945	80	-0.115	92.1	inactive
3	NSA2	3	1.55	113	1.11	93.9	inactive
4	IFNE	1	0.771	97.2	1.84	66.9	inactive
5	IFNE	2	-0.132	79.3	-0.406	98.6	inactive
6	IFNE	3	-1.16	58.9	-0.988	85.4	inactive

The list itself, from the start:
no.	Gene	reagent	total luciferase, z-score	total luciferase, % of control	luciferase per cell, z-score	viable cells, % of control	Call
1	NSA2	1	-2.17	38.7	-2	73.2	inactive
2	NSA2	2	-0.0945	80	-0.115	92.1	inactive
3	NSA2	3	1.55	113	1.11	93.9	inactive
4	IFNE	1	0.771	97.2	1.84	66.9	inactive
5	IFNE	2	-0.132	79.3	-0.406	98.6	inactive
6	IFNE	3	-1.16	58.9	-0.988	85.4	inactive
7	SACK1G	1	1.19	106	0.874	93.7	inactive
8	SACK1G	2	4.78	177	2.23	110	active
9	SACK1G	3	0.155	85	-0.405	106	inactive
10	TAS2R4	1	-0.874	64.5	-1	93.9	inactive
11	TAS2R4	2	1.57	113	1.49	85.4	inactive
12	TAS2R4	3	3.1	144	2.75	77.7	active
13	APBB3	1	-1.25	57	-0.428	71.3	inactive
14	APBB3	2	1.74	116	0.841	104	inactive
15	APBB3	3	-0.557	70.8	-0.826	98.4	inactive
16	SCAMP1	1	0.741	96.6	0.0746	106	inactive
17	SCAMP1	2	0.242	86.7	0.0195	96.4	inactive
18	SCAMP1	3	0.79	97.6	-0.181	114	inactive
19	TSHR	1	0.4	89.8	0.78	81.7	inactive
20	TSHR	2	1.16	105	1.16	86.5	inactive
21	TSHR	3	-0.66	68.8	0.075	75.3	inactive
22	RNASE7	1	0.398	89.8	1.97	59.7	inactive
23	RNASE7	2	1.48	111	1.49	84.1	inactive
24	RNASE7	3	-1.4	54.1	-0.703	72.7	inactive
25	OR2F2	1	0.197	85.8	-0.707	115	inactive
26	OR2F2	2	0.821	98.2	0.481	96.7	inactive
27	OR2F2	3	-0.0585	80.7	0.0803	88.3	inactive
28	FBXL17	1	-0.44	73.1	0.842	65.5	inactive
29	FBXL17	2	0.69	95.6	0.312	98.4	inactive
30	FBXL17	3	-0.48	72.3	0.0576	79.6	inactive
31	LINC02860	1	0.175	85.4	0.318	87.7	inactive
32	LINC02860	2	-0.958	62.8	-0.265	75.3	inactive
33	LINC02860	3	2.03	122	1.96	81.6	inactive
34	HOXC9	1	-0.134	79.2	-0.0461	89.6	inactive
35	HOXC9	2	-0.412	73.7	-0.141	85.5	inactive
36	HOXC9	3	0.278	87.4	1.66	63	inactive
37	CUEDC2	1	-0.192	78.1	-0.367	96.1	inactive
38	CUEDC2	2	-0.763	66.7	-1.23	103	inactive
39	CUEDC2	3	1.79	118	0.976	102	inactive
40	ZBTB12	1	0.49	91.6	0.483	90.2	inactive
41	ZBTB12	2	-2.38	34.5	-2.54	75.1	inactive
42	ZBTB12	3	1.67	115	1.1	96.4	inactive
43	TMEM177	1	-0.34	75.1	-0.273	90.2	inactive
44	TMEM177	2	1.42	110	1.08	92.7	inactive
45	TMEM177	3	-0.335	75.2	-0.494	95.7	inactive
46	ETV5	1	1.15	105	2.12	66.9	inactive
47	ETV5	2	-1.57	50.6	-2.25	102	inactive
48	ETV5	3	-2.54	31.4	-3.33	84.5	inactive
49	RPL4	1	-1.54	51.2	-0.484	65	inactive
50	RPL4	2	-2.39	34.4	-1.63	59	inactive
51	RPL4	3	-2.71	28	-2.94	67.8	inactive
52	SCEL	1	-0.676	68.4	-0.616	89.9	inactive
53	SCEL	2	-1.18	58.3	0.199	61.9	inactive
54	SCEL	3	0.0393	82.7	-0.926	118	inactive
55	MED16	1	-1.43	53.4	-1.28	83.5	inactive
56	MED16	2	1.54	112	1.41	86.6	inactive
57	MED16	3	-0.309	75.7	0.0113	84.4	inactive
